Source: PubChem BioAssay AID504749 (NCATS, 2011).

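A panel of P. falciparum strains inside erythrocytes is exposed to compounds for three days, then a DNA-binding dye reports the amount of parasite DNA.
Each compound was titrated across a series from about 0.000037 to 29 µM.
The number is the fitted AC50, the concentration giving a half-maximal change in signal; a lower value means higher potency, whether the curve shows a decrease or an increase.
Calls follow the curve class and fit quality: every row here is inconclusive, covering signal-raising curves and weak, poorly fitted, partial or highest-dose-only inhibition curves.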

Values are in nM.
All entries here are filed as inconclusive.
These entries are mostly ones the record files as inconclusive; other results of the assay are not listed here.
Potencies fitted to partial, single-point or poorly fitting curves are rough.

| # | Compound | tested on / at | Potency (nM) | curve |
|---|---|---|---|---|
| 1 | `CN1[C@@H]2CC[C@H]1CC(OC1c3ccccc3CCc3ccccc31)C2` (stereo partly specified) | CP237 | 501.2 | inhibitor, full curve, poor fit |
| 2 | `CN1[C@@H]2CC[C@H]1CC(OC1c3ccccc3CCc3ccccc31)C2` (stereo partly specified) | CP250 | 7080 | inhibitor, single point |
| 3 | `CN1[C@@H]2CC[C@H]1CC(OC1c3ccccc3CCc3ccccc31)C2` (stereo partly specified) | CP247 | 3162 | inhibitor, partial curve, poor fit |
| 4 | `CN1[C@@H]2CC[C@H]1CC(OC1c3ccccc3CCc3ccccc31)C2` (stereo partly specified) | CP286 | 4467 | inhibitor, partial curve |
| 5 | `CN1[C@@H]2CC[C@H]1CC(OC1c3ccccc3CCc3ccccc31)C2` (stereo partly specified) | SC27B | 7080 | inhibitor, single point |
| 6 | `CN1[C@@H]2CC[C@H]1CC(OC1c3ccccc3CCc3ccccc31)C2` (stereo partly specified) | CP211 | 40.5 | inhibitor, full curve, poor fit |
| 7 | `CN1[C@@H]2CC[C@H]1CC(OC1c3ccccc3CCc3ccccc31)C2` (stereo partly specified) | ATS189 | 7080 | inhibitor, single point |
| 8 | `CN1[C@@H]2CC[C@H]1CC(OC1c3ccccc3CCc3ccccc31)C2` (stereo partly specified) | PC26 | 2869 | inhibitor, partial curve, poor fit |
| 9 | `CN1[C@@H]2CC[C@H]1CC(OC1c3ccccc3CCc3ccccc31)C2` (stereo partly specified) | CP185 | 2239 | inhibitor, partial curve, poor fit |
| 10 | `CN1[C@@H]2CC[C@H]1CC(OC1c3ccccc3CCc3ccccc31)C2` (stereo partly specified) | P94_40 | 3548 | inhibitor, partial curve |
| 11 | `CC(C)(C)CC(C)(C)c1ccc(O)c(-n2nc3ccccc3n2)c1` | CP286 | 15848 | inhibitor, single point |
| 12 | `CC(C)(C)CC(C)(C)c1ccc(O)c(-n2nc3ccccc3n2)c1` | CP252 | 17782 | inhibitor, single point |
| 13 | `CC(C)(C)CC(C)(C)c1ccc(O)c(-n2nc3ccccc3n2)c1` | CP250 | 17782 | inhibitor, single point |
| 14 | `CC(C)(C)CC(C)(C)c1ccc(O)c(-n2nc3ccccc3n2)c1` | PAD | 11220 | inhibitor, single point |
| 15 | `CC(C)(C)CC(C)(C)c1ccc(O)c(-n2nc3ccccc3n2)c1` | CP238 | 12589 | inhibitor, single point |
| 16 | `CC(C)(C)CC(C)(C)c1ccc(O)c(-n2nc3ccccc3n2)c1` | CP265 | 11220 | inhibitor, single point |
| 17 | `CC(C)(C)CC(C)(C)c1ccc(O)c(-n2nc3ccccc3n2)c1` | CP335 | 15101 | inhibitor, single point |
| 18 | `CC(C)(C)CC(C)(C)c1ccc(O)c(-n2nc3ccccc3n2)c1` | FAB9 | 11220 | inhibitor, single point |
| 19 | `CC(C)(C)CC(C)(C)c1ccc(O)c(-n2nc3ccccc3n2)c1` | N140 | 10000 | inhibitor, single point |
| 20 | `CC(C)(C)CC(C)(C)c1ccc(O)c(-n2nc3ccccc3n2)c1` | CP260 | 17782 | inhibitor, single point |
| 21 | `CC(C)(C)CC(C)(C)c1ccc(O)c(-n2nc3ccccc3n2)c1` | TAB109 | 17782 | inhibitor, single point |
| 22 | `CC(C)(C)CC(C)(C)c1ccc(O)c(-n2nc3ccccc3n2)c1` | PC15 | 17782 | inhibitor, single point |
| 23 | `CC(C)(C)CC(C)(C)c1ccc(O)c(-n2nc3ccccc3n2)c1` | DFO2036 | 14125 | inhibitor, single point |
| 24 | `CC(C)(C)CC(C)(C)c1ccc(O)c(-n2nc3ccccc3n2)c1` | ECU | 17782 | inhibitor, single point |
| 25 | `CC(C)(C)CC(C)(C)c1ccc(O)c(-n2nc3ccccc3n2)c1` | P94_40 | 11220 | inhibitor, single point |
| 26 | `CC(C)(C)CC(C)(C)c1ccc(O)c(-n2nc3ccccc3n2)c1` | CP256 | 17782 | inhibitor, single point |
| 27 | `CCC(=O)c1ccc2c(c1)N(CCCN1CCN(CCO)CC1)c1ccccc1S2` | CP192 | 13459 | inhibitor, single point |
| 28 | `CCC(=O)c1ccc2c(c1)N(CCCN1CCN(CCO)CC1)c1ccccc1S2` | CP329 | 16944 | inhibitor, single point |
| 29 | `CCC(=O)c1ccc2c(c1)N(CCCN1CCN(CCO)CC1)c1ccccc1S2` | C2A | 14125 | inhibitor, single point |
| 30 | `CCC(=O)c1ccc2c(c1)N(CCCN1CCN(CCO)CC1)c1ccccc1S2` | CP185 | 8912 | inhibitor, single point |
| 31 | `CCC(=O)c1ccc2c(c1)N(CCCN1CCN(CCO)CC1)c1ccccc1S2` | ATS95 | 11220 | inhibitor, single point |

The last 2 entries again:

- CCC(=O)c1ccc2c(c1)N(CCCN1CCN(CCO)CC1)c1ccccc1S2 [CP185] : Potency 8912 nM (inhibitor, single point)
- CCC(=O)c1ccc2c(c1)N(CCCN1CCN(CCO)CC1)c1ccccc1S2 [ATS95] : Potency 11220 nM (inhibitor, single point)